Literature values, collected in patent US11446302B2, “Compounds with anti-tumor activity against cancer cells bearing EGFR or HER2 exon 20 mutations” (Board of Regents, The University of Texas System, priority 2016, dated 2022).
At least one structure is not confirmed: it was looked up by name or label, or the drawing left a doubt. Some entries share one result that the patent states for a list of compounds.

What was measured:
[1] = system: EGFR H773insNPH PDX; conditions: Yang et al., 2016; cited from earlier work
[2] = system: HER2 mutant tumors; conditions: many studies, Kosaka et al., 2017; cited from earlier work

SMILES	activity in EGFR H773insNPH PDX model [1]	OR rates in patients with HER2 mutant tumors [2]
C=CC(=O)Nc1cccc(Nc2nc(Nc3ccc(N4CCN(C(C)=O)CC4)cc3OC)ncc2C(F)(F)F)c1 [Rociletinib]	minimal activity	
CS(=O)(=O)CCNCc1ccc(-c2ccc3ncnc(Nc4ccc(OCc5cccc(F)c5)c(Cl)c4)c3c2)o1 [Lapatinib]		below 40%
CN(C)C/C=C/C(=O)Nc1cc2c(Nc3ccc(F)c(Cl)c3)ncnc2cc1O[C@H]1CCOC1 [Afatinib]		below 40%
COc1cc2ncnc(Nc3ccc(F)c(Cl)c3)c2cc1NC(=O)/C=C/CN1CCCCC1 [Dacomitinib]		below 40%
